Among the data in the OPERA property sets (Mansouri et al. 2018) are logP values, retold here.

What is called logP is the decadic logarithm of the partition coefficient of the neutral form, usually between octanol and water. A high value points to a more lipophilic compound. The compound `C1CN=C2CCCN2C1` showed a logP of -0.17.
